Assay results

From PubChem BioAssay record AID1159506 (NCATS, 2015).

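Genome-wide siRNA knockdown in TC32 Ewing sarcoma cells, comparing luciferase light from an NR0B1-promoter reporter with a CMV-promoter reporter 48 hours after transfection.
Each siRNA was applied at 20 nM.
A z-score of the log NR0B1-over-CMV signal, less the median of siRNAs with the same seed; more negative means a stronger specific loss of the NR0B1 reporter.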

The strongest results of the screen are mostly left out here.
Sequences are the guide (antisense) strand, without overhang.

siRNA | target gene | seed-corrected z-score
AAUCCCAAAACCAACAUCC | SEC14L2 | -0.9374
UCAUUAGUACUAUCGCUGC | KIT | 0.1848
UAUUCGAAAUGGAAAUGUC | GPR87 | -0.4385
UUAGUAUGACCAAAGGUCC | ENPP4 | -0.3115
AUAGAGCCCACUAUGCUUU | PSG4 | -0.3547
UGCUUUGUCAGGUUCUUUC | LOC285423 | -0.6581
UGAUAAUCUCUGGAGACUU | MPC1 | 1.923
UCUGGUAUAAUCUGACUGG | LYPD8 | 0.01818
UUAAUGCACACCAAGUCCA | GFOD1 | 0.09452
UUUGCUGUAAAUAACUUGG | C3orf49 | 1.447
AAGCUUUUUCGAAUUGACG | FRG2B | 0.03239
UUCGAAAUACCAGCAAUGC | VOPP1 | 0.6446
UGCGAAGUCAAUUAGUCCG | MED12L | -0.09652
UGGUCUUCCAACGUGCUGG | ZNF808 | -1.62
UAGUCAACAACCGUGGAGC | ULK4 | 0.4129
UGUUCCAUAAACAAGAGUG | NUAK1 | 0.08996
UCAGGGUUACGGUUCCACC | AGER | -0.09862
UAGAUGACGAUCUUUGUCC | TCP10L | 0.2469
UAUCCUAUAUCCUUAGACC | CRP | -0.09213
UCUGGAUCCGUAACUCAGG | KRTAP13-4 | -0.9476
UCACUUUAUUUGGUCUUUC | TMEM154 | -1.205
UCUGAGACAAUAACAAUGA | LINC01599 | 1.33
UUCCUUCUUAGCUACCAGG | CDIP1 | -0.2465
UCGGGUAUCAAGGAGCAGC | ETV7 | 0.6534
UUCUUGAAGCCUUUGUCUC | MTFP1 | 0.2025
UCCAUAAAUCCUGUGCUCC | C5orf46 | 0.7538
UAGUCGAUACAACCAUUGC | MYL6P5 | 0.546
UCACUAUAAGCUAUCAGUG | ANKH | 1.373
UUCUUGCACAGCGCCACGA | HIC1 | 0.07709
UUUCUGAGACAUGGUACUG | CFHR3 | 0.1317
UGUUUGUAUCAUUGGAUUC | C18orf32 | -0.07964
UUUGGGUCUUUAGAUGAGG | NGRN | -0.2955
UACAUUCUCAGUGUGAGCC | CALR | 0.2322
AACAAGAUAAAGUUAUCCG | NTRK3 | 0.5203
UGUCGGAUGAAGGUGGUCU | EHD1 | -0.4385
UUAUCUUGAAACCAUUCGC | PMS1 | -1.394
UAAGAGAUCAGAGGUUUAG | SOCS7 | 0.6926
AAAGGUACUCUUGGAUGCG | ZNF229 | -0.7525
UCACAGACAUGUUUUCUUC | HRH3 | -0.7693
UAUCUAAUAUACGCUGAUG | NCBP1 | -0.7347
UCUUUCAUCCUUUCAAUGG | CYP3A43 | -0.08404
UAUUAUAUAAGGAUCAAAG | LRRC38 | 0.3307
UCAGAGAAUGGUAGAUUAG | DLGAP1-AS1 | 0.1757
AAAUGGGUCAUUCUGAAGG | SLC43A3 | 0.6559
AUAGGUGUUAUACCAGUUC | FGF20 | -0.6316
UUUCCUGUACGUAUGCUGG | ARHGDIA | 0.3692
AUGGAAUUGAACACCGUCC | SPTSSA | -0.9861
UUGGUGUUCGAGCUCGUCC | LOC340089 | -0.4521
UCAUGGAAUGAAGAGGUGC | COQ3 | -0.1569
UGACAUUGUACGUAGGACU | MED25 | 0.006934
UGUAAGUUUAAUCCAUUCC | TMEM260 | 0.9817
UAGCUUACCAAUCUUAAGG | RPL15 | -1.68
UCAUGGUUCAGCACCCACU | FES | -0.01668
UGAUGAACUGAGGUGUAGC | CLOCK | 1.523
AAACGGAUCAGAACCUGGG | AKR1B15 | 0.5042
UUAGCACAACAAUAAGUCC | ABHD3 | 0.8134